Experimental data: publication PMC5009256
No constants are given. Whether binding was seen depends on the method and setting. Binding seen in cells or lysates may run through a third protein. A yes stands for co-enrichment or nearness to the bait. Other partners may have been found.

Chains of the proteins cited; added tags and fusions are not shown.
UniProt P10275: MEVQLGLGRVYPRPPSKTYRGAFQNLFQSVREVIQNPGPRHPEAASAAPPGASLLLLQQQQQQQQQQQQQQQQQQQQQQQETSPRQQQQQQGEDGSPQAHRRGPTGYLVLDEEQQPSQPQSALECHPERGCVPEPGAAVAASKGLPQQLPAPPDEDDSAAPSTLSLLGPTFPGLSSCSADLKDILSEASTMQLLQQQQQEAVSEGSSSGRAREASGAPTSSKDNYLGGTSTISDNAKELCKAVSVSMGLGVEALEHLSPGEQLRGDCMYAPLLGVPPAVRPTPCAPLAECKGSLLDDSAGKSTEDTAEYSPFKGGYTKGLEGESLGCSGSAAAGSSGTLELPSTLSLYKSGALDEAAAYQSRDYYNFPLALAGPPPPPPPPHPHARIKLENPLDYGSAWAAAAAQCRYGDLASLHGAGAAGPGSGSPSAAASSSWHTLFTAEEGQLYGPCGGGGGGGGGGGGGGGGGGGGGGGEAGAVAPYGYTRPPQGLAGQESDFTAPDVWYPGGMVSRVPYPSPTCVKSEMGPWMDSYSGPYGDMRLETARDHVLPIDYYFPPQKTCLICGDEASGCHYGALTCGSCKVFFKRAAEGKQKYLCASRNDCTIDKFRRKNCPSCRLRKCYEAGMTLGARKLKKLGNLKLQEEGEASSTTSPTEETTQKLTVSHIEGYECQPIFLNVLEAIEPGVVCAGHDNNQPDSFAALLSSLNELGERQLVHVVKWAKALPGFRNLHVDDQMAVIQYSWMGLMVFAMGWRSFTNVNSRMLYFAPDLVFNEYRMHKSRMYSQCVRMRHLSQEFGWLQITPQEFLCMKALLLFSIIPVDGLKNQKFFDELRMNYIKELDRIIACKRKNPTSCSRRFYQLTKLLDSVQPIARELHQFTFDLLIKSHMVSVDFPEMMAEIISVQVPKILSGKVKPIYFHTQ
UniProt Q14974: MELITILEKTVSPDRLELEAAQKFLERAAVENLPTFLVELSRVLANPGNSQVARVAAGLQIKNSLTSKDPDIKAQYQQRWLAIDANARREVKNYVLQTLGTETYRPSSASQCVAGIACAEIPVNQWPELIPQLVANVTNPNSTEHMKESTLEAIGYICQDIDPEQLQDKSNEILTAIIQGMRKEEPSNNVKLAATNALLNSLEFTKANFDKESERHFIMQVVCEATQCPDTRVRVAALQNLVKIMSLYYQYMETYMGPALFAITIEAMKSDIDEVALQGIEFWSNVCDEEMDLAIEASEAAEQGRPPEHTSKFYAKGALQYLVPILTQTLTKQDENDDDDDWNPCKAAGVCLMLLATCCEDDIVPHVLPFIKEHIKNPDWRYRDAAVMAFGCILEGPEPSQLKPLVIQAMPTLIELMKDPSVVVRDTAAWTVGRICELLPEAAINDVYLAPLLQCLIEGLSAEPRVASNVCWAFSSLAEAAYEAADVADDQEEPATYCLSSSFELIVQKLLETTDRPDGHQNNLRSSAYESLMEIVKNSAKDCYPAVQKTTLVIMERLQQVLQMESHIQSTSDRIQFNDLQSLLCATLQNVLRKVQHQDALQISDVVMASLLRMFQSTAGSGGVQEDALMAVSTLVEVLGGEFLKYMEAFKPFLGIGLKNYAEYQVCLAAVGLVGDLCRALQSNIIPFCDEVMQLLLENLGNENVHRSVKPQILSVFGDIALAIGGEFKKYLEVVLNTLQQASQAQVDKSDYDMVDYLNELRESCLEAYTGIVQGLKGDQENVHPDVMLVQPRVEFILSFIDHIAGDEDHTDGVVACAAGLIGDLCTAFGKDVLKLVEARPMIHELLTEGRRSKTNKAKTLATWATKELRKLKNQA
UniProt O14818: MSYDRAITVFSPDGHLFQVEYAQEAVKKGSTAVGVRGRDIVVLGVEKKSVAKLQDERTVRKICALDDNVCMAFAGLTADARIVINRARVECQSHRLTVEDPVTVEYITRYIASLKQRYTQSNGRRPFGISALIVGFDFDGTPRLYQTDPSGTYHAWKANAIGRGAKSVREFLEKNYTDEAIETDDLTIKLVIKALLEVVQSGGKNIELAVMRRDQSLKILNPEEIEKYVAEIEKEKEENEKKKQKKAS

target: streptavidin-binding peptide-tagged wild-type androgen receptor (SBP-AR), stably expressed in N-AR cells (human) (UniProt P10275); test: affinity purification with mass spectrometry; SBP-AR captured on UltraLink Plus streptavidin beads from 10 mg cytosolic proteins of N-AR cells, androgen-depleted (vehicle, AD) or androgen-stimulated (100 nM R1881, 1 h, AS); overnight at 4 °C in 50 mM Tris, 100 mM KCl, 20% glycerol, 1.5 mM MgCl2, 0.2 mM ZnCl2, 5 mM DTT, 5 mM ATP, 0.025% Nonidet P-40; low-stringency washes; label-free directed MS; one biological replicate; no control purification without SBP-AR

binding, binds:
karyopherin importin β (KPNB1) (from UniProt Q14974 1-876)
karyopherin importin α (KPNA6) (from UniProt O60684 1-536)
PSMA7, a subunit of the catalytic 20S core proteasome (from UniProt O14818 1-248)
